Data on 108 sequences can be found in PubChem BioAssay AID1508600 (Functional Genomics Laboratory (NCATS/FGL), 2020).

Screen size: about 53,000 sequences; about 3,700 (7%) were called active.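 How the source made its calls: active means gene knockdowns whose robust z-score for IL-1 alpha signal is at least 2 or at most -2, so actives lie on both sides; inactive means the rest.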 This is one part of the list.

A short description of this experiment: Components of the Cytosolic LPS Sensing Pathway: Gene Identification via Genome-wide siRNA Screen.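 Further: robust z of the log signal after scaling to non-targeting control siRNA wells of the plate.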 The note with it: RAW264.7 macrophages, IL-1a HTRF, actives lie on both sides, screened at 100 nM (by protocol), cells primed 5 h with Pam3CSK4 first. In a few lines: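 Mouse macrophage line RAW264.7 is transfected with siRNA (100 nM final), grown 48h, primed with TLR ligand Pam3CSK4 5 h and given intracellular LipidA 24 h. IL-1a in supernatant is read by HTRF and viability by luminescence.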
On to GGUCCACACUUUCUGUCUUTT against Mkks, for which the z-score was inactive: 1.03. Turning to GUGACCAGCUAUAAUCAGATT against Ins1, the z-score is inactive: -0.404.

On to GGUUAAAGGGAAUUUUAUGTT against Zcchc14, for which the z-score is inactive: -0.395. The same measure for CGGGCGUGUGUUUGAAAAGTT against Cpox: inactive: 0.418. For the sequence GGUGCUUUUACAUCUCACATT against Cd72, the z-score was inactive: -0.791.

On to GGUAAUGAGACGCGGUUUATT against Ina, for which the z-score was inactive: 0.202. Regarding GGAAAAGAUUUUUCUCUGATT against Usp26, the z-score is inactive: 0.466. With GCCGAUGAUACCAAACCGATT against Oser1, the z-score was inactive: 0.151. On to GGUUGUCAAGAGCUCAUACTT against Tefm, for which the z-score is inactive: -1.31. GGUACCUGAAAAAAACAAATT against Tmem42: the z-score was inactive: -1.44. For the sequence GCCCAUUCUAAACAAAUAATT against Ptcd1, the z-score is inactive: -0.825. For GGGACUCUACCUUCAAUGUTT against Fkbp9, the z-score is inactive: 0.482.

In the case of CGGCUCAUAGGAAUGAUUUTT against Brf1, the z-score was inactive: 0.134. For GGACACAUACUACACUAAGTT against Upf1, the z-score was inactive: -0.811. The same measure for GCUGAAUAGCCUCUAUCUATT against Rasgrp4: inactive: 0.261; for GGGAUUUAAAAGGAAAUGUTT against Gbp7: inactive: -1.05; for GCAAAUCCCUCUGAAUGAUTT against Aox3: inactive: -1.95.

Take GGAUCCAAUACCAGCUAGUTT against Sh3bgrl3: the z-score is inactive: -0.158. CCUGGAAGGAUUAUUGCACTT against Klf9: the z-score was inactive: 1.9. The same measure for GGUCUUCUUCAAACAACUGTT against Hhip: inactive: -0.941; for GGAAAGUCUCCAAGUUUGUTT against Snx20: inactive: 1.95; for GGGUACAUUCUGGAAAUUUTT against Ids: inactive: -1.08.

As for GGAAGAAGAGGAUGAGAUUTT against Clcn6, the z-score was inactive: -1.73.

Take GGACCUGUACAAAAAGGGATT against Mag: the z-score is inactive: -1.1. Turning to GCCAUAUCUGGUCACAUGUTT against Zfp738, the z-score is inactive: 0.464. Consider CCUGAUCCUCAGUUUGGUGTT against Prl, for which the z-score is inactive: 0.129. The value for CGUAUAGGCACAAAGUAAATT against Gpr176 was inactive: -0.3; that for GGAGGAAUUUCUUAAGCUUTT against Ivns1abp was inactive: 0.988. On to GGAAUCAGUUAAAGAGAUCTT against Bbs5, for which the z-score is inactive: -1.37. Consider GGUUUACAGCACCAAGAUCTT against Itih3, for which the z-score was inactive: -0.625. Consider GGUGGACAAGCAAGUCUAGTT against Ube2o, for which the z-score is inactive: 1.97.

For GGAGAUUUUGGAAAAAGCATT against Setd3, the z-score was inactive: 0.351.

For GGAAAACUUGAGGCGGAUCTT against Enkd1, the z-score is active: 2.63. GGCAAAAGACACUGUCAAUTT against Naip3: the z-score is inactive: -0.897. For UGCCUGUAAACCAACAAGGTT against Prb1, the z-score was active: -2.04. Consider GGACCAUUUUCAAUACUCUTT against Rps6kl1, for which the z-score was inactive: -1.16. Turning to GCUUCUAUUUCAUCUUUGUTT against Krtap4-7, the z-score was inactive: -0.0385. The same measure for GCAUGUAUGGGCUGUUCAUTT against Olfr642: inactive: 1.3; for GGAGAGUAUGUACUCACAUTT against Sh2b3: inactive: 0.224; for CCUAAAAAGAGGAAAAGGGTT against Psg29: inactive: -0.254. GGAAAGCCCUCCGAAGUUUTT against Wsb2: the z-score is inactive: -0.0582.

Take CGCAUCUUAUCUUUCCUAATT against Ngly1: the z-score is inactive: 0.324. As for CGAUUCAAUGUACCUGUAATT against Sarnp, the z-score is inactive: -0.921. With GGAUUCUUUCCCUUUGUGCTT against Bicdl2, the z-score was inactive: 0.101. With GGAUUUGUAAAUUACCUGGTT against Clec4d, the z-score is inactive: 0.544. In the case of CCAGAAACUAGCCUACUACTT against Vgll2, the z-score was inactive: 0.395. In the case of GGACUUCGAAAGUUUAUCCTT against Ttc41, the z-score was inactive: -1.76.

Consider CCUGGAAUAGACUGAAUUATT against Fam20b, for which the z-score is inactive: 0.73.

Regarding GCUGAUGAGUGGCUAUCAGTT against Coro6, the z-score is inactive: -1.19. For the sequence UAGGAAUUGGCUUCUACCUTT against Tdpoz2, the z-score is inactive: -0.818. For the sequence CGUGCUGUGCCUUCUGAGUTT against Gtf2e2, the z-score is inactive: 0.913. For GGGCAAAUUAGAGACCAAGTT against Nwd2, the z-score was inactive: 0.692.

As for GGCGGCUUUAGACAAGUAATT against Mrpl13, the z-score was inactive: -0.331. As for GCAUUAGUGGCAGAACUUUTT against Gcsam, the z-score is inactive: 1.42. With GGACUUGAUGACAGUGAAUTT against Strada, the z-score was active: -2.27. The value for GCUUCGACACUUUAUUUCUTT against Cnp was inactive: 0.26; that for CCACUUUAAGACUGACUGUTT against Tnfrsf25 was inactive: 1.57.

With CCUACAUGGGCAUCAUUAGTT against Tfpi2, the z-score was inactive: -0.182. The value for GGCCGAAUCACAGAAACUCTT against Mrps18a was inactive: 1.87; that for GUUUCUGGAGACGGUGGAGTT against Rpl10a was inactive: 1.74; that for GCGAAACUUCCAGAUCUAGTT against Cnot11 was active: 2.14. The value for GGAGAUUGCUAAUAGCUGUTT against Cldn15 was inactive: 0.723; that for CCUAUAUAAACACUCGAAATT against Zbtb5 was inactive: 0.0409. The value for GGAGUAAAUUGAGAAACCATT against Acsm5 was inactive: -0.149; that for GGCAGACAUCACAAUGGCUTT against Hemgn was inactive: -0.201. In the case of GCAAAUUUAAGAGAAGUUGTT against Dse, the z-score was inactive: -0.132.

With CCUUUCCAUCCCAGAAAAATT against Gm11437, the z-score was inactive: -0.0413. For the sequence GGGUCACUUUAUGCAUCUUTT against Fam168a, the z-score was inactive: -1.37. GGAGUCCUAAAGAGUUCUATT against Slc11a1: the z-score is inactive: 0.723. Take GGUAAAGGAUGCUUUUAAGTT against Olfr801: the z-score is inactive: 0.99.

On to GGUUACAAAUGAUUGUUCATT against Phxr2, for which the z-score is inactive: 1.05. On to GGUGGUGAAUAUGAUGAUATT against Tsr1, for which the z-score is inactive: -0.712. As for GCGGUUUCUUCGAGAAACUTT against Mau2, the z-score is inactive: -1.03. As for GGAUGUGACCCACUUUAUATT against Zhx3, the z-score is inactive: 1.01. Take GGUGACUUUCUGAAACUCCTT against Hoxa5: the z-score was inactive: -1.75. As for GGCCUUCAACAUUGACCGATT against Kcnc4, the z-score was inactive: 0.166. “GGGUCUGCGUGACAAUUACTT against 4930542C12Rik”: the z-score is inactive: 1.21. For GGCUGAAGUUAACAGUAAGTT against Gprasp1, the z-score is inactive: 0.473. As for GGAGAAAAAGUUACGUCGATT against Stk38l, the z-score is inactive: 0.866.

With GCAAGCAAACUGGAGUUGATT against Trim68, the z-score is inactive: 0.277.

GGGCUACAUUCCUUCCAAUTT against Frk: the z-score was active: 5.59. Take GGCCUCAUGAAGAACCUUCTT against Pparg: the z-score was inactive: -1.27. Take GGACGAUCUAGCAUUCAUGTT against Fat3: the z-score is inactive: 0.349. The same measure for GGUUGUGACUUCUCAUUUUTT against Ccnb1: inactive: -0.0479.

For GGCCCACCUAUUUCAUCUCTT against Actl7b, the z-score was inactive: -0.634. For the sequence GGAAGAUAAUGGGAAUUUCTT against Acp2, the z-score was inactive: -0.424. GGUUUAAUAGACGACAAUGTT against Ube2g1: the z-score was inactive: -1.39. Take GCUGGUAUACAGAAUAAACTT against Mfn1: the z-score is inactive: 0.468. GCAUGAAUUCAAAUUGCCATT against Adgrl4: the z-score is inactive: -0.981. With GGAGUUACCUGGAUAUUAUTT against Car8, the z-score was inactive: -0.499. As for GGGACACCAAGUUUUCCAUTT against Paqr7, the z-score was inactive: 1.63.

Regarding GGAAGUUUCCCAUCAGUGATT against Cryab, the z-score was inactive: -0.486. Regarding CGGUGCAGAUGUCGACGAUTT against Znrd2, the z-score is inactive: 0.494.

On to GGGUGACCUUUUGUUUUUATT against Cfl2, for which the z-score was inactive: 1.36. Take GGGCCUUACGUCAUUCUCUTT against Dnajb7: the z-score is inactive: -0.319. Consider GGAUGAACAACAAUCAAACTT against Btrc, for which the z-score is inactive: 0.704.

For GGUAAGUCCUAACAAACAATT against Nxph2, the z-score was inactive: 0.226. The value for GGACAAGCAAGAAGGAAUUTT against Polr2j was active: -2.43; that for GGUAGAAGUGAAAAAGAUATT against Bhmt was inactive: -0.386; that for GCUAUCUAAGCAAAAGAGATT against Iftap was inactive: 1.69. In the case of GCUUAUAAAAGUGAAUCGGTT against Chmp2b, the z-score was inactive: 0.501. Take GGCAGUGGAGUGUAUGGAUTT against Popdc2: the z-score is inactive: -0.531. Regarding GGACAGAAUGGAAAUUCUUTT against Efna2, the z-score is inactive: -0.275. Regarding GGGCAAAUUCUCAAGAAAATT against Tbc1d9, the z-score was inactive: 0.614. For the sequence CCUACUAGUGCAUUUGUAATT against Gabarapl2, the z-score is inactive: -0.0741. Consider CCCAGGUUGACAAGAACUCTT against Socs7, for which the z-score is inactive: -0.0474. Take GGUAACGAUGCUGGAAUUCTT against Sdcbp: the z-score is active: 4.37.

Consider CGUAAGUGGACGACGGUUCTT against Kcnd3, for which the z-score is inactive: 0.106.
